{"source": "patent CN114480298A", "binders": {"B1": {"name": "抗TIGIT单克隆抗体MJ12-30 (antibody, mouse IgG1, kappa, V domains shown)", "VH": "EVKLEQSGGVLVQPGGSRKLSCAASGFTFHSFGMHWVRQAPEKGLEWVAYISSGGSTIFYADTVKGRFTISRDNPKNTLFLQMTSLRSEDTAMYYCAGSDHGNLGYWGQGTTLTVSS", "VL": "DIVLTQSPLSLSVSLGDQASISCRSSQSILHSGGNTYLDWFLQRPGQSPKLLIYKVSNRISGVPDRFSGSGAGTDFTLKISRVEAEDLGVYYCFQGNHVPPTFGGGTKLEIKR"}}, "key": {"[1]": {"target": "T1, 人TIGIT重组蛋白 (真核293F细胞表达, 胞外区Met22-Pro141, C端6×His) (human) (UniProt Q495A1)", "T1 sequence": "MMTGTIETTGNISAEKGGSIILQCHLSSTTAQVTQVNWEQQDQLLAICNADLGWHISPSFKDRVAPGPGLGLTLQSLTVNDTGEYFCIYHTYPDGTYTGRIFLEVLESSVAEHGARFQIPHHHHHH", "assay": "Western blot, 0.2 μg antigen per lane, primary antibody 0.2 µg/mL"}, "[2]": {"target": "T1, 人TIGIT重组蛋白 (真核293F细胞表达, 胞外区Met22-Pro141, C端6×His) (human)", "assay": "indirect ELISA, plate coated with 1 µg/mL antigen, antibody 0.5 µg/mL"}}, "note": "No constants are given. Whether binding was seen depends on the method and setting. Some binding calls cover weakened binding; strength is not graded here. Sequences can lack the tags named with a protein.", "data": [{"binder": "B1", "values": [{"measurement": "binding", "setting": "[1]", "value": "binds"}, {"measurement": "binding", "setting": "[2]", "value": "binds"}]}]}
